# Measured values published in PubChem BioAssay AID1347076 (National Center for Advancing Translational Sciences (NCATS), 2019).
# Hit rate of the full screen: of about 400,000 compounds, about 13,000 (3.2%) were called active. Inconclusive results, whose numbers are uncertain, are shown with a selection of clear calls. The call rests on the fitted dose curve; in most records, active means well fitted cell-killing curve with a large enough effect; inconclusive means small, poorly fitted or top-dose-only effect, or effect the other way; inactive means flat fitted curve, though single readings scatter. Potencies of inconclusive entries are doubtful fits and often do not repeat.
# Assay: qHTS assay for MDR1-selective chemotherapeutics: Primary screen using the drug-selected MDR subline cells KB-V1; further: nearly all actives have a fitted effect of over 60% in size
# Conditions: KB-V1 MDR cells viability, CellTiter-Glo, 72 h; series mostly up to 46.1 µM
# In short: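 KB-V1 cells (P-gp-expressing MDR subline of KB-3-1) in phenol-red-free DMEM with 10% FBS were exposed to library compounds over a concentration series for 72 h at 37 degrees C. Viability read by CellTiter-Glo luminescence; concentration-effect curves fitted after normalization.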
# Potency means the concentration at half of the fitted maximal effect.
row,Structure (SMILES),Potency
1,CCCSc1oc(-c2ccco2)nc1S(=O)(=O)c1ccc(Cl)cc1,inactive
2,COc1ccccc1C(=O)NCC(=O)OCC(=O)NNC(=O)c1ccc(Br)cc1,"inconclusive: 14.6 µM [rising, single point]"
3,CCN(CC)c1nc(C)nc2c1sc(=S)n2C,"inconclusive: 18.4 µM [cytotoxic, single point]"
4,COCCCn1nnnc1SCC(=O)Nc1ccc2c(c1)OCCO2,"inconclusive: 8.2 µM [cytotoxic, partial curve]"
5,Cc1ccc(Nc2nc(CSc3nnc(-c4ccncc4)n3-c3ccccc3C)cs2)cc1,"inconclusive: 29.1 µM [cytotoxic, single point]"
6,O=C(Cn1ncc2c([nH]c3ccccc32)c1=O)N1CCN(c2ccccn2)CC1,inactive
7,CC1(C)CC(=O)C(C(C2=C(O)CC(C)(C)CC2=O)c2ccc([N+](=O)[O-])cc2)C(=O)C1 (stereo unspecified),"inconclusive: 13 µM [cytotoxic, partial curve]"
8,COc1ccc(CCNC(=O)CN(C2CCCCC2)S(C)(=O)=O)cc1OC,"inconclusive: 29.1 µM [cytotoxic, partial curve, poor fit]"
9,CCOC(=O)C1CCN(C(=O)C2CCCN2S(=O)(=O)c2ccc(Cl)cc2)CC1 (stereo unspecified),inactive
10,COc1ccc(-n2cc(CNC3CCOCC3)c(-c3cccc(F)c3)n2)cc1,"inconclusive: 11.6 µM [cytotoxic, partial curve]"
11,CCOC(=O)Cn1c(C)[n+](CC(=O)c2ccccc2)c2ccccc21,"inconclusive: 20.6 µM [rising, single point]"
12,CCCCC(=O)O[C@H]1CC[C@H]2[C@@H]3CCc4cc(O)ccc4[C@H]3CC[C@]12C,"inconclusive: 29.1 µM [cytotoxic, single point]"
13,Cc1onc(-c2c(F)cccc2Cl)c1C(=O)N=C(N)N1CC(C)OC(C)C1 (stereo unspecified),"inconclusive: 23.1 µM [cytotoxic, single point]"
14,O=C(Nc1ccc(Cl)cc1)c1ccc2sc([C@@H]3O[C@H](CO)[C@H](O)[C@H](O)[C@H]3O)nc2c1,"inconclusive: 0.0731 µM [rising, full curve]"
15,Cc1cc(=O)n2c(C(=O)Nc3ccc(Br)cc3)c(C(=O)Nc3ccccc3)sc2n1,inactive
16,CCN(CC(=O)Nc1ccc(OC)c(OC)c1)S(=O)(=O)c1ccc(C)cc1,active: 13 µM
17,COCCOC(=O)c1[nH]c2c(c1C)C(=O)CC(c1ccc(OC)c(OC)c1)C2 (stereo unspecified),inactive
18,Cc1cccc(NC(=O)CNC(=O)COc2ccc(C(=O)c3ccc(F)cc3)cc2)c1C,"inconclusive: 13 µM [cytotoxic, partial curve, poor fit]"
19,O=C(c1ccc(F)cc1F)C1CCN(c2ccc([N+](=O)[O-])cn2)CC1,"inconclusive: 16.4 µM [cytotoxic, single point]"
20,COCCNC(=O)CN(C(=O)c1ccc(N2CCCC2)nc1)c1ccc(F)c(Cl)c1,"inconclusive: 20.6 µM [cytotoxic, single point]"
21,CC(C)(C)N(Cc1ccccc1)C(=O)COC(=O)c1ccccc1SCC(=O)N1CCCC1,active: 20.6 µM
22,O=[N+]([O-])c1ccc(NC(=S)N2CCN(c3ccccn3)CC2)cc1,"inconclusive: 13 µM [rising, partial curve]"

# Exported bar-delimited: part of the list above
row | Structure (SMILES) | Potency
5 | Cc1ccc(Nc2nc(CSc3nnc(-c4ccncc4)n3-c3ccccc3C)cs2)cc1 | inconclusive: 29.1 µM [cytotoxic, single point]
6 | O=C(Cn1ncc2c([nH]c3ccccc32)c1=O)N1CCN(c2ccccn2)CC1 | inactive
7 | CC1(C)CC(=O)C(C(C2=C(O)CC(C)(C)CC2=O)c2ccc([N+](=O)[O-])cc2)C(=O)C1 (stereo unspecified) | inconclusive: 13 µM [cytotoxic, partial curve]
8 | COc1ccc(CCNC(=O)CN(C2CCCCC2)S(C)(=O)=O)cc1OC | inconclusive: 29.1 µM [cytotoxic, partial curve, poor fit]
9 | CCOC(=O)C1CCN(C(=O)C2CCCN2S(=O)(=O)c2ccc(Cl)cc2)CC1 (stereo unspecified) | inactive

# The list continues.

row,Structure (SMILES),Potency
1,Cn1cnc([N+](=O)[O-])c1Sc1nc(N)nc2c1ncn2Cc1ccccc1,inactive
2,NC(=O)c1cc2ccccc2o/c1=N\NC(=O)c1ccco1,"inconclusive: 16.4 µM [cytotoxic, partial curve, poor fit]"
3,N#C/C(=C\c1ccccc1Cl)C(=O)Nc1ccccn1,"inconclusive: 0.0146 µM [rising, full curve]"
4,Cc1cc(=O)[nH]c(NN=Cc2c(Cl)cccc2Cl)n1,"inconclusive: 14.6 µM [cytotoxic, single point]"
5,CC(C)NC(=O)N(C)C[C@@H]1Oc2ccc(NC(=O)Nc3ccc(C(F)(F)F)cc3)cc2CC(=O)N([C@H](C)CO)C[C@@H]1C,"inconclusive: 29.1 µM [rising, single point]"
6,Cc1cccc(Nc2nc(-c3sc(C)nc3C)cs2)c1,"inconclusive: 29.1 µM [cytotoxic, single point]"
7,Cc1ccc(Cl)cc1Nc1sc(C(=O)c2ccc(F)cc2)c(N)c1S(C)(=O)=O,"inconclusive: 23.1 µM [cytotoxic, single point]"
8,O=C(CN(Cc1ccccc1Cl)C(=O)c1csnn1)NC1CCCC1,inactive
9,CNc1ncc(-c2nnnn2-c2ccccc2)c(-c2ccccc2)n1,active: 20.6 µM
10,COc1cc(SC)ccc1C(=O)N(Cc1ccccc1)c1ccccc1,"inconclusive: 20.6 µM [cytotoxic, single point]"
11,COc1ccc(C(=O)/C=C/Nc2ccc(S(=O)(=O)Nc3cc(OC)nc(OC)n3)cc2)c(OC)c1,inactive
12,COc1cc(CC2COC(=O)C2(O)Cc2ccc(O)c(OC)c2)ccc1O (stereo unspecified),inactive
13,Cc1cccc(NC(=O)COc2ccccc2C(=O)NC(C)c2ccccc2)c1 (stereo unspecified),"inconclusive: 5.8 µM [cytotoxic, full curve]"
14,OC[C@@H]1CN(Cc2ccc(Cl)cc2)C[C@H](n2cnc3c(NCc4ccco4)ncnc32)O1,"inconclusive: 2.59 µM [cytotoxic, full curve, poor fit]"
15,O=C(COC(=O)COc1ccccc1)Nc1ccc(Br)cc1Br,"inconclusive: 29.1 µM [rising, single point]"
16,CCCCCCCCN1C(=O)[C@H](CC(=O)NCCCN2CCCC2=O)C[C@@]2(C(=O)OCC)CCCC=C12,inactive
17,C/C(=N/NC(=O)CN1CCN(S(=O)(=O)c2ccc(C)cc2)CC1)c1ccco1,inactive
18,Cc1cc(Nc2cccc(Cl)c2)nc2ccc(NC(=O)Cc3ccc(Cl)cc3)cc12,"inconclusive: 29.1 µM [cytotoxic, single point]"
19,NC(=O)C1CCN(CC(O)CSc2ccc(F)cc2)CC1 (stereo unspecified),"inconclusive: 29.1 µM [rising, single point]"
20,CCCCN(C=O)c1c(CC)nc2c(OCc3ccccc3C(=O)OC)cccn12,"inconclusive: 8.2 µM [cytotoxic, partial curve]"
21,c1coc(CNc2nc3ccccc3s2)c1,"inconclusive: 29.1 µM [rising, single point]"
22,C[C@@H](NC(=O)c1nc[nH]c1C(=O)NCC(=O)OCc1ccccc1)c1ccccc1,inactive

row,Structure (SMILES),Potency
1,COC(=O)c1ccccc1N=NNc1ccc([N+](=O)[O-])cc1,inactive
2,Cc1ccc(-c2csc3nnc(SCC(=O)Nc4nsc(-c5ccccc5)n4)n23)cc1,"inconclusive: 9.2 µM [cytotoxic, partial curve, poor fit]"
3,O=C1/C(=C\c2cccs2)Sc2ccc3ccccc3c21,"inconclusive: 18.4 µM [cytotoxic, single point]"
4,O=c1c2ccccc2nc(-c2cccs2)n1-c1cccc2ccccc12,active: 23.1 µM
5,C/C(=N\NC(=O)c1ccccc1Cl)c1ccccn1,inactive
6,CCOc1ccccc1NC(=O)Cn1c(=O)n(Cc2ccccc2)c(=O)c2c1c1cc(C)ccc1n2C,"inconclusive: 9.2 µM [rising, partial curve, poor fit]"
7,CCC(C)(C)C1CCc2nc3ccccc3c(C(=O)OC(C)C(=O)Nc3c(C)n(C)n(-c4ccccc4)c3=O)c2C1 (stereo unspecified),inactive
8,CCOC(=O)COc1ccc(/C=C/[N+](=O)[O-])c(OCC(=O)OCC)c1,inactive
9,NS(=O)(=O)c1ccc(N2N=C(c3ccccc3)CC2c2ccccc2)cc1 (stereo unspecified),"inconclusive: 18.4 µM [cytotoxic, single point]"
10,O=C(NC1CCCCC1)C1Cc2ccccc2CN1S(=O)(=O)c1ccc(F)cc1 (stereo unspecified),"inconclusive: 5.17 µM [cytotoxic, full curve, poor fit]"
11,O=C(NCCC(=O)N1CCN(S(=O)(=O)c2ccccc2)CC1)c1ccc(Br)cc1,"inconclusive: 29.1 µM [cytotoxic, single point]"
12,CC(=O)N1CCN(CC(=O)Nc2cc(S(=O)(=O)N3CCCCC3)ccc2C)CC1,"inconclusive: 18.4 µM [rising, single point]"
13,COc1cc(NC(=O)C2CC(c3c(F)cccc3Cl)=NO2)cc(OC)c1OC (stereo unspecified),"inconclusive: 4.11 µM [cytotoxic, full curve]"
14,COc1ccc(/C=N/NC(=O)c2nc(-c3ccccc3)n(-c3ccccc3)n2)cc1OC,inactive
15,COc1ccccc1NS(=O)(=O)c1cccc(C(=O)OCc2nc3ccccc3s2)c1,"inconclusive: 11.6 µM [cytotoxic, partial curve]"
16,CNC(=O)/C(C#N)=C/c1c(N(Cc2ccccc2)Cc2ccccc2)nc2ccccn2c1=O,active: 2.59 µM
17,Cc1ccc(-c2nc(=Nc3c(C)cc(C)cc3C)sn2-c2ccccc2)cc1,"inconclusive: 29.1 µM [cytotoxic, single point]"
18,O=C(O)CCCn1cc(NC(=O)c2ccco2)cn1,"inconclusive: 0.092 µM [rising, full curve, poor fit]"
19,CN1CCC2(CC1)N=C(c1ccc(F)cc1)C(=S)N2C(=O)c1ccc(C(C)(C)C)cc1,"inconclusive: 14.6 µM [cytotoxic, single point]"
20,CCCc1nc2ccccc2c(=O)n1NC(=O)c1c(O)c2cccc3c2n(c1=O)CCC3,"inconclusive: 0.651 µM [cytotoxic, full curve, poor fit]"
21,CCCCOC(=O)c1ccc(NC(=S)N2CCN(c3ncc4c(=O)c(C(=O)O)cn(CC)c4n3)CC2)cc1,"inconclusive: 16.4 µM [rising, single point]"
22,Cn1c(=O)[nH]c(=O)c2c1nc(Sc1nc3ccccc3s1)n2Cc1ccccc1,"inconclusive: 20.6 µM [cytotoxic, single point]"
